Assay results as given in patent US12275985B2, “Redox labeled oligonucleotide probes and their use” (ABBOTT DIAGNOSTICS SCARBOROUGH, INC., priority 2016, dated 2025).
Entries after “also recorded” stand apart in the source; their conditions may differ.

Tests used:
[1] = tested on: InfA[PA] and InfB[PA] DNA; assay: Duplexed RPA detection with 1:1 mixture of MB- and PZ9-labelled probes on HeartCheck sensor; set-up: species or system Influenza A and Influenza B; conditions: duplexed detection at 15 min, 10^7 copies of each target; for Imax of calculated Gaussian curve: third order polynomial baseline correction
InfB[PA] DNA = assay: Electrochemical read-out of RPA with redox-labelled Fpg probes, positive reactions vs NTC; set-up: species or system Influenza B; conditions: InfB[PA] Fpg probe mono-labelled

Row | Compound | σ of calculated Gaussian curve [1] | Imax of calculated Gaussian curve [1] [nA] | peak current values relative to other labels (InfB[PA] DNA)
1 | CN(C)c1ccc2nc3ccc(N(C)C)cc3[s+]c2c1.[Cl-] [Methylene Blue, 3,7-bis(Dimethylamino)-phenothiazin-5-ium chloride] | 0.0311 | 301.5 | 
2 | CC/[N+](CCCS(=O)(=O)[O-])=c1/ccc2nc3ccc(N(C)CCC(=O)O)cc3oc-2c1 [PO2, N-(3-(N-methyl(2-carboxyethyl)amino)phenoxazin-7-ylidene)-N-ethyl(3-sulfonatopropyl)aminium chloride] |  |  | approximately equal to those for PO1; also recorded: lower than peak currents obtained with MB
3 | CN(CCCC(=O)O)c1ccc2nc3ccc(N(C)c4ccccc4)cc3[s+]c2c1.[Cl-] [PZ9] | 0.0243 | 194 | 
